# Results from PubChem BioAssay AID493014 (National Center for Advancing Translational Sciences (NCATS), 2011).
# Values joined by “and” are separate entries in the source; they are usually repeats but may differ in a detail not shown here. Equal values may be shown once. The campaign covered roughly 340,000 compounds. About 170 (0.05%) were called active. Inconclusive results, whose numbers are uncertain, are shown with a selection of clear calls. The call rests on the fitted dose curve; in most records, active means well fitted inhibition curve with a large enough effect in the signal ratio, with a control signal flat (not every such curve was filed as active); inconclusive means small, poorly fitted or top-dose-only effect, or effect the other way, or a change in a side signal; inactive means flat fitted curve, though single readings scatter; the % refers to the signal ratio. A potency beside an inconclusive call is a rough fit, not a confirmed value.
# Assay: qHTS Assay to Find Inhibitors of Chronic Active B-Cell Receptor Signaling;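 on activity change, negative = inhibition: plate controls were basal doxycycline-induced cells for no effect and cells given 10 µM MG132 for full effect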
# Conditions: ABC-DLBCL IkBa-CBG/CBR reporter, luminescence ratio (green luciferase fused to IkBa over red control in TMD8 lymphoma cells), 4 h
# How it was run: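 Compounds up to 46 uM were incubated four hours with TMD8 cells whose green CBG68 luciferase is fused to IkappaBalpha; red CBR luminescence normalised the signal, and concentration-effect curves were fitted to fusion, red and ratio data.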
# [1] = activity change, negative = inhibition: at 46.1 µM (top of the series)
# Potency means the concentration at half of the fitted maximal effect.
smiles,measurement,setting,value
COc1ccc(CCC(=O)N2CC(C)OC(C)C2)cc1 (stereo not given),"activity change, negative = inhibition",[1],inconclusive: 8.82%
Cc1nn(-c2ccccc2)c(Cl)c1/C=N/NC(=O)c1ccccc1NS(=O)(=O)c1cccs1,"activity change, negative = inhibition",[1],inconclusive: -0.869%
CC(C)c1ccc2c(c1)c(SC(C)(C)C)c(CC(C)(C)C(=O)O)n2Cc1ccc(Cl)cc1,"activity change, negative = inhibition",[1],inconclusive: -9% and inconclusive: -16.7%
Cc1cc(C)cc(NC(=S)N2CCC(NC(=O)c3ccccc3C)CC2)c1,"activity change, negative = inhibition",[1],inconclusive: -38.3%
COc1ccc(CCNC(=O)C2CCN(S(=O)(=O)c3cccc4nsnc34)CC2)cc1OC,"activity change, negative = inhibition",[1],inactive
CCCOC(=O)c1ccc(NC(=O)c2c(Cl)ccc(Cl)c2OC)cc1,"activity change, negative = inhibition",[1],inconclusive: -13.6%
COc1ccc(/C=C/C(=O)NCCCc2ccccc2)cc1,"activity change, negative = inhibition",[1],inconclusive: -0.264%
CN(CCCNC(=O)c1ccccc1F)CCCNC(=O)c1ccccc1F,"activity change, negative = inhibition",[1],inactive
CCOc1ccc2nc(N/C(N)=N/C(=S)Nc3cccc(OC)c3)nc(C)c2c1,"activity change, negative = inhibition",[1],inconclusive: 1.06%
Fc1ccc(NC(=S)N2CCCC(c3ccccc3)=N2)cc1,Potency,[1],"inconclusive: 10 µM [falling, partial curve, poor fit]"
Brc1ccc(-c2cn3c(n2)CCc2ccc4cccnc4c2-3)cc1,Potency,[1],"inconclusive: 31.6 µM [cytotoxic, single point]"
O=C(CCn1c(=O)c2cccn2c2ccc(F)cc21)NCc1cccc(F)c1,"activity change, negative = inhibition",[1],inactive
Cc1nn(C)c(C)c1/C=N/N=C1\CCC2C3CCc4cc(O)ccc4C3CCC12C (stereo not given),"activity change, negative = inhibition",[1],inconclusive: -0.238%
Cc1ccc(C)n1-n1c(C)nc2sc(-c3ccccc3)cc2c1=O,"activity change, negative = inhibition",[1],inconclusive: -18.4%
CC(C)NCC(=O)C12CC3CC(CC(C3)C1)C2,"activity change, negative = inhibition",[1],inconclusive: -0.293%
COCCCn1c(SCC(=O)Nc2ccc(F)cc2)nc2c(sc3ccccc32)c1=O,"activity change, negative = inhibition",[1],inactive
COC(=O)c1ccc(COC(=O)CNC(=O)c2ccc(-c3ccccc3)cc2)cc1,Potency,[1],"inconclusive: 16.4 µM [falling, single point]"
CCn1c(C)nc2cc(S(=O)(=O)C(F)(F)C(F)C(F)(F)F)ccc21 (stereo not given),"activity change, negative = inhibition",[1],inactive
CCOC(=O)C1CCCCN1Cc1cc(Cl)ccc1O (stereo not given),"activity change, negative = inhibition",[1],inconclusive: 27.4%
Cc1cc(C(=O)COC(=O)c2ccc3c(c2)OCO3)c(C)n1CC1CCCO1 (stereo not given),"activity change, negative = inhibition",[1],inactive
Cn1c(=O)[nH]c(=O)c2c1nc(NCCCO)n2CCOc1ccccc1,"activity change, negative = inhibition",[1],inconclusive: 6.47%
O=C(CCN1C(=O)/C(=C/c2ccccc2Cl)SC1=S)NN1CCOCC1,"activity change, negative = inhibition",[1],inconclusive: -7.15%
COc1ccccc1OCC(=O)Nc1ccc(-c2nnc(-c3ccco3)o2)cc1,"activity change, negative = inhibition",[1],inconclusive: 15.9%
COc1ccc(-c2nc3ccccc3c(=O)n2CCOc2ccccc2C)cc1,"activity change, negative = inhibition",[1],inactive
CCOc1nc(Nc2ccc(F)cc2)nc(N2CCN(c3ccc(OC)cc3)CC2)n1,"activity change, negative = inhibition",[1],inactive
Nc1c2c(nc3cccc(Cl)c13)N(c1ccccc1)CC2,"activity change, negative = inhibition",[1],inconclusive: 9.74%
Nc1c(-c2ccc3c(c2)OCCO3)oc2ccccc2c1=O,"activity change, negative = inhibition",[1],inactive
COC(=O)C1=C(N)Oc2cc(C)n(Cc3ccccc3)c(=O)c2C1c1ccccc1 (stereo not given),"activity change, negative = inhibition",[1],inconclusive: 3.29%
Cc1ccc(-c2nc(NC(=O)c3nn(C)cc3[N+](=O)[O-])sc2C)cc1,Potency,[1],"inconclusive: 0.013 µM [falling, full curve, poor fit]"
COc1ccc(Cl)cc1NC(=O)CCN1CCN(C)CC1,Potency,[1],"inconclusive: 16.4 µM [falling, partial curve, poor fit]"
Cc1ccc2c(c1)N(S(=O)(=O)c1ccc(CN3C(=O)c4cccnc4C3=O)s1)CCO2,"activity change, negative = inhibition",[1],inactive
CC(C)(C)OC(=O)C[C@H]1C/C=C\C[C@@H](CC(=O)N[C@H](CO)Cc2ccccc2)C(=O)N2CCC[C@H]2COC1=O,"activity change, negative = inhibition",[1],inconclusive: 1.54%
Cc1ccccc1OCC(=O)Nc1ccccc1N1CCCCC1,"activity change, negative = inhibition",[1],inactive
CCOP(=O)(OCC)c1nc(-c2ccc(Cl)cc2Cl)oc1N1CCCCC1,"activity change, negative = inhibition",[1],inactive
Cc1ccc2cc(C)c(SCC(=O)NCc3ccco3)nc2c1,"activity change, negative = inhibition",[1],inconclusive: 4.54%
CC(/C=C/c1ccccc1)=N\Nc1nc(-c2ccccc2)cs1,"activity change, negative = inhibition",[1],inconclusive: 2.93%
O=C(COc1ccc(Cl)cc1)NCC(c1ccco1)S(=O)(=O)c1ccc(F)cc1 (stereo not given),"activity change, negative = inhibition",[1],inactive
CCOC(=O)c1cc(S(=O)(=O)N2CCc3ccccc32)cn1C,"activity change, negative = inhibition",[1],inconclusive: 1.06%
COc1ccc(NC(=O)c2cc(-c3cccnc3)nc3ccc(C)cc23)cc1OC,"activity change, negative = inhibition",[1],inactive
COCCOC(=O)c1c(C)n(C)c2ccc(OC(=O)N3CCOCC3)cc12,"activity change, negative = inhibition",[1],inconclusive: -0.403%
O=C(/C=C/c1cccs1)Nc1cccnc1,Potency,[1],"inconclusive: 16.4 µM [falling, partial curve, poor fit]"
CN1CCCCC1CCN1c2ccccc2Sc2ccc(S(C)=O)cc21 (stereo not given),"activity change, negative = inhibition",[1],inconclusive: -1.93%
same,"activity change, negative = inhibition",at 46.1 µM (top of the series),inactive: -19%
Cc1cccc(C(=O)NC(NCCc2ccccc2)C(Cl)(Cl)Cl)c1 (stereo not given),"activity change, negative = inhibition",[1],inconclusive: 7.37%
COc1cc(NS(=O)(=O)c2ccc(NC(=O)C3CCCO3)cc2)nc(OC)n1 (stereo not given),"activity change, negative = inhibition",[1],inactive
Cc1ccc(NC(=S)N/N=C/c2cccn2Cc2ccccc2F)cc1,"activity change, negative = inhibition",[1],inactive
C=CCn1c(SCC(=O)Nc2nc(C)cs2)nnc1C(NC(=O)c1ccccc1)C(C)C (stereo not given),"activity change, negative = inhibition",[1],inconclusive: 25.4%
O=C(Cc1ccc(Cl)cc1Cl)OCC(=O)N1CCCCC1,"activity change, negative = inhibition",[1],inconclusive: 15.1%
CC(C)CCNC(=O)c1ccc(CSCc2cccc(F)c2)o1,"activity change, negative = inhibition",[1],inconclusive: 13.4%
COc1ccc(S(=O)(=O)NCC2CCCO2)cc1NC(=O)c1ccc(Cl)cc1 (stereo not given),"activity change, negative = inhibition",[1],inactive
CCOC(=O)C1=C(SCC)c2cc3c(n2C1=O)CCCC3,Potency,[1],"inconclusive: 16.4 µM [rising, partial curve, poor fit]"
O=C(NNC(=S)Nc1cccc(Cl)c1)c1ccccc1OC(F)F,Potency,[1],"inconclusive: 18.4 µM [falling, single point]"
COC(=O)CN1C(=O)N/C(=C/c2cc(OC)c(OC)cc2C)C1=O,"activity change, negative = inhibition",[1],inconclusive: 20.3%
COc1ccc(-c2sc3ccc(OC)cc3c2C#Cc2cncn2C)cc1,"activity change, negative = inhibition",[1],inactive
COc1ccc(/C=N/NC(=O)c2ccc(NS(=O)(=O)c3cccs3)cc2)cc1,Potency,[1],"inconclusive: 2.31 µM [falling, partial curve]"
O=C(CN1C(=O)NC2(CCCCCC2)C1=O)NCCc1ccc(F)cc1,"activity change, negative = inhibition",[1],inactive
O=C(CCSc1ccccc1)N1CCN(c2ccccc2F)CC1,"activity change, negative = inhibition",[1],inconclusive: 0.426%
Cc1cccc2sc(N(Cc3cccnc3)C(=O)c3ccco3)nc12,"activity change, negative = inhibition",[1],inactive
COc1ccccc1CC(=O)Nc1ccc2c(c1)OC1(CCCC1)O2,"activity change, negative = inhibition",[1],inactive
CC(=O)C1C(c2ccc([N+](=O)[O-])cc2)c2c(noc2C)CC1(C)O (stereo not given),"activity change, negative = inhibition",[1],inactive
CN(C)/C=C/C(=O)c1cccc(Cl)c1,"activity change, negative = inhibition",[1],inactive
CCc1cc2c(=O)n(-c3ccc(Br)cc3)cnc2s1,"activity change, negative = inhibition",[1],inconclusive: 16.5%
Cc1cc(C(=O)c2ccccc2)nc2ccccc12,"activity change, negative = inhibition",[1],inconclusive: 10.9%
O=S(=O)(c1cccc(-c2nn3c(-c4ccncc4)nnc3s2)c1)N1CCOCC1,"activity change, negative = inhibition",[1],inconclusive: -3.06%
CCN(CC)CCNC(=O)c1cc2c(-c3cccc(OC)c3)nn(C)c2s1,"activity change, negative = inhibition",[1],inconclusive: 1.58%
Cc1cccc(N(Cc2ccccc2)C(=O)c2ccc(C)c(S(=O)(=O)N3CCOCC3)c2)c1,"activity change, negative = inhibition",[1],inconclusive: 4.34%
O=C(C1=NNCC1c1ccccc1)C1OC1c1ccccc1 (stereo not given),"activity change, negative = inhibition",[1],inconclusive: -0.483%
CCOC(=O)NC(=O)C(/C=N/c1sccc1C(=O)OC)=C(\C)O,"activity change, negative = inhibition",[1],inactive
O=C(COC(=O)c1cc(S(=O)(=O)N2CCOCC2)ccc1O)NCC1CCCO1 (stereo not given),"activity change, negative = inhibition",[1],inconclusive: 17.3%
COc1ccc(C2Nc3ccccc3C(=O)N2Cc2ccco2)cc1COc1ccc(NC(C)=O)cc1 (stereo not given),"activity change, negative = inhibition",[1],inactive
COc1ccc(C(C)=O)cc1COC(=O)c1c(C)nn(-c2ccccc2)c1C,"activity change, negative = inhibition",[1],inconclusive: -4.09%
CCc1c(C(=O)Nc2cc(C)cc(C)c2)[nH]c(C)c1C(C)=O,"activity change, negative = inhibition",[1],inconclusive: -21%
O=C(NCc1ccccc1Cl)c1ccc2c(c1)NC(=O)C(CS(=O)(=O)Cc1ccc(Cl)cc1)N2 (stereo not given),"activity change, negative = inhibition",[1],inactive
Cc1nnc(SCC(=O)Nc2ccc3c4c(cccc24)CC3)n1C,"activity change, negative = inhibition",[1],inconclusive: 3.49%
COc1c2c(cc3c1C(CC(O)Cc1ccccc1)N(C)CC3)OCO2 (stereo not given),Potency,[1],"inconclusive: 35.5 µM [falling, partial curve, poor fit]"
Cn1c(O)c(/C=N/NC(=O)c2cc3ccccc3cc2O)c2ccccc21,Potency,[1],"inconclusive: 15.8 µM [falling, partial curve]"
CCOC(=O)c1c(C)[nH]c(C)c1S(=O)(=O)N1CCCC(C(=O)N2CCN(c3cccc(Cl)c3)CC2)C1 (stereo not given),"activity change, negative = inhibition",[1],inconclusive: 4.41%
COc1ccc(-c2cc(C3CCN(c4cc(Cl)nc(N)n4)CC3)[nH]n2)cc1,"activity change, negative = inhibition",[1],inconclusive: -31.2%
Cc1cnc(NC(=O)CSc2ncc(-c3ccccc3)n2Cc2ccco2)s1,"activity change, negative = inhibition",[1],inconclusive: 16.2%
COc1ccc(C(=O)N2c3ccccc3C=CC2C#N)cc1 (stereo not given),"activity change, negative = inhibition",[1],inactive
COc1ccc2c3c(cccc13)C(=O)CC2,"activity change, negative = inhibition",[1],inconclusive: -4.19%
COc1ccc(C2OC(=O)CC2C(=O)N2CCN(c3cc(Cl)ccc3C)CC2)cc1OC (stereo not given),"activity change, negative = inhibition",[1],inconclusive: 1.04%
COc1ccc(OC[C@@H](O)CNC(=O)c2cccc3c2C(=O)c2ccc(-c4ccc(F)cc4OCc4ccccc4)cc2S3(=O)=O)cc1,"activity change, negative = inhibition",[1],inconclusive: -0.22%
FC(F)(F)c1cccc(-c2nnc(-c3ccccc3)c(N3CCOCC3)n2)c1,"activity change, negative = inhibition",[1],inconclusive: 19.7%
CCn1cc(C(=O)OCC(=O)Nc2cccc(S(=O)(=O)N3CCOCC3)c2)c(=O)c2ccc(C)nc21,"activity change, negative = inhibition",[1],inconclusive: -14.2%

# Reprinted at random: four entries already listed, in no set order.
smiles,measurement,setting,value
Cc1ccccc1OCC(=O)Nc1ccccc1N1CCCCC1,"activity change, negative = inhibition",[1],inactive
COCCOC(=O)c1c(C)n(C)c2ccc(OC(=O)N3CCOCC3)cc12,"activity change, negative = inhibition",[1],inconclusive: -0.403%
CCOC(=O)c1cc(S(=O)(=O)N2CCc3ccccc32)cn1C,"activity change, negative = inhibition",[1],inconclusive: 1.06%
Cc1cc(C(=O)COC(=O)c2ccc3c(c2)OCO3)c(C)n1CC1CCCO1 (stereo not given),"activity change, negative = inhibition",[1],inactive

# Reformatted with bars between the fields: part of the list above
smiles | measurement | setting | value
Cc1cccc(C(=O)NC(NCCc2ccccc2)C(Cl)(Cl)Cl)c1 (stereo not given) | activity change, negative = inhibition | [1] | inconclusive: 7.37%
FC(F)(F)c1cccc(-c2nnc(-c3ccccc3)c(N3CCOCC3)n2)c1 | activity change, negative = inhibition | [1] | inconclusive: 19.7%
